Assay results published in the supplement of paper PMC8728848.
The list shows a part of the results.

Tests used:
Experiment in all cases: glycan array binding signal (z-score within array); higher = stronger binding
Conditions in all cases: glycan notation: IUPAC condensed, linker removed
[1] = target: Neu5Ac(a2-6)Gal(b1-4)GlcNAc(b1-6)GalNAc
How it was run: (§1)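 Glycan array binding is given as a within-array Z-score, which can be read as non-binding when negative. The arrays, 3228 of them, came from the Consortium for Functional Glycomics database and were retained only where the protein sequence was available. Z-scores were averaged across arrays of the same protein sequence at different concentrations or buffers and across linkers.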

[2] = target: Neu5Ac(a2-6)Gal(b1-4)GlcNAc(b1-6)[Gal(b1-3)GlcNAc(b1-3)]Gal(b1-4)Glc
How it was run: as §1

[3] = target: Neu5Ac(a2-6)Gal(b1-4)GlcNAc(b1-6)[Gal(b1-3)]GalNAc
How it was run: as §1

[4] = target: Neu5Ac(a2-6)Gal(b1-4)GlcNAc6S
How it was run: as §1

Neu5Ac(a2-6)GalNAc = target: Neu5Ac(a2-6)GalNAc
How it was run: as §1

[5] = target: Neu5Ac(a2-6)GalNAc(b1-4)GlcNAc
How it was run: as §1

[6] = target: Neu5Ac(a2-6)GalNAc(b1-4)GlcNAc6S
How it was run: as §1

[7] = target: Neu5Ac(a2-6)GlcNAc(b1-4)GlcNAc
How it was run: as §1

[8] = target: Neu5Ac(a2-6)GlcNAc(b1-4)GlcNAc(b1-4)GlcNAc
How it was run: as §1

Neu5Ac(a2-8)Neu5Ac = target: Neu5Ac(a2-8)Neu5Ac
How it was run: as §1

[9] = target: Neu5Ac(a2-8)Neu5Ac(a2-3)Gal(b1-3)GalNAc(b1-4)[Neu5Ac(a2-3)]Gal(b1-4)Glc
How it was run: as §1

[10] = target: Neu5Ac(a2-8)Neu5Ac(a2-3)Gal(b1-3)GalNAc(b1-4)[Neu5Ac(a2-8)Neu5Ac(a2-3)]Gal(b1-4)Glc
How it was run: as §1

[11] = target: Neu5Ac(a2-8)Neu5Ac(a2-3)Gal(b1-4)Glc
How it was run: as §1

[12] = target: Neu5Ac(a2-8)Neu5Ac(a2-3)Gal(b1-4)GlcNAc
How it was run: as §1

[13] = target: Neu5Ac(a2-8)Neu5Ac(a2-3)[Gal(b1-3)GalNAc(b1-4)]Gal(b1-4)Glc
How it was run: as §1

[14] = target: Neu5Ac(a2-8)Neu5Ac(a2-3)[GalNAc(b1-4)]Gal(b1-4)Glc
How it was run: as §1

[15] = target: Neu5Ac(a2-8)Neu5Ac(a2-8)Neu5Ac
How it was run: as §1

[16] = target: Neu5Ac(a2-8)Neu5Ac(a2-8)Neu5Ac(a2-3)Gal(b1-4)Glc
How it was run: as §1

[17] = target: Neu5Ac(a2-8)Neu5Ac(a2-8)Neu5Ac(a2-3)[Gal(b1-3)GalNAc(b1-4)]Gal(b1-4)Glc
How it was run: as §1

[18] = target: Neu5Ac(a2-8)Neu5Ac(a2-8)Neu5Ac(a2-3)[GalNAc(b1-4)]Gal(b1-4)Glc
How it was run: as §1

[19] = target: Neu5Ac(a2-8)Neu5Ac(a2-8)Neu5Ac(a2-8)Neu5Ac(a2-3)[GalNAc(b1-4)]Gal(b1-4)Glc
How it was run: as §1

[20] = target: Neu5Ac(a2-8)Neu5Gc(a2-3)Gal(b1-4)GlcNAc
How it was run: as §1

[21] = target: Neu5Ac(b2-6)Gal(b1-4)GlcNAc
How it was run: as §1

Neu5Ac(b2-6)GalNAc = target: Neu5Ac(b2-6)GalNAc
How it was run: as §1

[22] = target: Neu5Ac9Ac(a2-3)Gal(b1-4)GlcNAc
How it was run: as §1

[23] = target: Neu5Ac9Ac(a2-6)Gal(b1-4)GlcNAc
How it was run: as §1

[24] = target: Neu5Gc(a2-3)Gal(b1-3)GlcNAc
How it was run: as §1

[25] = target: Neu5Gc(a2-3)Gal(b1-3)[Fuc(a1-4)]GlcNAc
How it was run: as §1

Neu5Gc(a2-3)Gal(b1-4)Glc = target: Neu5Gc(a2-3)Gal(b1-4)Glc
How it was run: as §1

[26] = target: Neu5Gc(a2-3)Gal(b1-4)GlcNAc
How it was run: as §1

[27] = target: Neu5Gc(a2-3)Gal(b1-4)GlcNAc(b1-3)Gal(b1-4)GlcNAc(b1-2)Man(a1-3)[Neu5Gc(a2-3)Gal(b1-4)GlcNAc(b1-3)Gal(b1-4)GlcNAc(b1-2)Man(a1-6)]Man(b1-4)GlcNAc(b1-4)GlcNAc
How it was run: as §1

[28] = target: Neu5Gc(a2-3)Gal(b1-4)[Fuc(a1-3)]GlcNAc
How it was run: as §1

[29] = target: Neu5Gc(a2-6)Gal(b1-4)GlcNAc
How it was run: as §1

Neu5Gc(a2-6)GalNAc = target: Neu5Gc(a2-6)GalNAc
How it was run: as §1

[30] = target: Neu5Gc(a2-8)Neu5Ac(a2-3)Gal(b1-4)GlcNAc
How it was run: as §1

[31] = target: Neu5Gc(a2-8)Neu5Gc(a2-3)Gal(b1-4)GlcNAc
How it was run: as §1

[32] = target: Neu5Gc(a2-8)Neu5Gc(a2-3)Gal(b1-4)GlcNAc(b1-3)Gal(b1-4)GlcNAc
How it was run: as §1

[33] = target: Neu5Gc(a2-8)Neu5Gc(a2-6)Gal(b1-4)GlcNAc
How it was run: as §1

B1: Protein L(B1-B4) (Finegoldia magna), Q51912 (protein)
chain: KEETPETPETDSEEEVTIKANLIFANGSTQTAEFKGTFEKATSEAYAYADTLKKDNGEYTVDVADKGYTLNIKFAGKEKTPEEPKEEVTIKANLIYADGKTQTAEFKGTFEEATAEAYRYADALKKDNGEYTVDVADKGYTLNIKFAGKEKTPEEPKEEVTIKANLIYADGKTQTAEFKGTFEEATAEAYRYADLLAKENGKYTVDVADKGYTLNIKFAGKEKTPEEPKEEVTIKANLIYADGKTQTAEFKGTFAEATAEAYRYADLLAKENGKYTADLEDGGYTINIRFAG
- glycan array binding signal (z-score) [1]: 3.08
- glycan array binding signal (z-score) [2]: -0.606
- glycan array binding signal (z-score) [3]: 0.784
- glycan array binding signal (z-score) [4]: -1.16
- glycan array binding signal (z-score) (Neu5Ac(a2-6)GalNAc): -0.807
- glycan array binding signal (z-score) [5]: -0.471
- glycan array binding signal (z-score) [6]: -0.425
- glycan array binding signal (z-score) [7]: -0.932
- glycan array binding signal (z-score) [8]: -0.463
- glycan array binding signal (z-score) (Neu5Ac(a2-8)Neu5Ac): -0.503
- glycan array binding signal (z-score) [9]: -0.525
- glycan array binding signal (z-score) [10]: -0.215
- glycan array binding signal (z-score) [11]: -1.15
- glycan array binding signal (z-score) [12]: -0.602
- glycan array binding signal (z-score) [13]: 0.211
- glycan array binding signal (z-score) [14]: 0.374
- glycan array binding signal (z-score) [15]: -0.413
- glycan array binding signal (z-score) [16]: 0.487
- glycan array binding signal (z-score) [17]: -0.773
- glycan array binding signal (z-score) [18]: 0.34
- glycan array binding signal (z-score) [19]: 0.128
- glycan array binding signal (z-score) [20]: -0.811
- glycan array binding signal (z-score) [21]: -0.79
- glycan array binding signal (z-score) (Neu5Ac(b2-6)GalNAc): -0.395
- glycan array binding signal (z-score) [22]: 0.223
- glycan array binding signal (z-score) [23]: -0.845
- glycan array binding signal (z-score) [24]: -0.672
- glycan array binding signal (z-score) [25]: 0.266
- glycan array binding signal (z-score) (Neu5Gc(a2-3)Gal(b1-4)Glc): -0.735
- glycan array binding signal (z-score) [26]: -0.106
- glycan array binding signal (z-score) [27]: 0.429
- glycan array binding signal (z-score) [28]: -0.618
- glycan array binding signal (z-score) [29]: -0.063
- glycan array binding signal (z-score) (Neu5Gc(a2-6)GalNAc): -0.808
- glycan array binding signal (z-score) [30]: -0.512
- glycan array binding signal (z-score) [31]: -1.03
- glycan array binding signal (z-score) [32]: -0.983
- glycan array binding signal (z-score) [33]: -1.09
